The list shows a part of the results.
B1: il2ra_site2_2erj_normal_mot_HHH_b1_07584_000000201_0001_42_55_H_._HHH_b2_01788_af2_0001_0000100002_0000001_0_af2pred_0001_af2pred (protein)
chain: SSSSSEEEEEAEKLAAEAKELALRGNPEEAREVLEKAEELAKEANNPELLKLLELSFRFAESSSS
B2: il2ra_site2_2erj_normal_mot_HHH_b2_07568_000000046_0001_18_34_H_._HHH_b2_00706_0001_0000500045_0000001_0 (protein)
chain: SSSSDVEELLERVEELIEQGNVEEAWEVLREASERVFRLDDPELFRLLIELFERLQELELSSSSS
B3: il2ra_site2_3nfp_normal_mot_HHH_b1_04370_000000117_0001_1_20_H_._HHH_b2_02124_0001_0000300015_0000001_0_af2pred_0001_af2pred (protein)
chain: SSSSDEEYELRFVEYLAELAIEHTSDEEEREELEELLEELREKGDPRIARELAQIAAEILLSSSS
B4: il2ra_site1_2b5i_sap_12_mot_e4f16f412d24973e63efe4e4a8bb3ce7_0001_1_af2_000000118_0001_1_13_H_._HHH_b1_01857_0001_0000600025_0000001_0_0001_af2pred_0001_af2pred … (protein)
chain: SSSSDEEFHEVLQLFREASELYRRGNKEEARELLERALKIAEELGDKVAFEDVRRYLEKASSSSS
B5: il2ra_site1_3nfp_sap_18_mot_18aa8fce457275efd5553655b25e0e68_0001_1_000000138_0001_38_52_H_._aff62e40800cfbf30c5099bd910ef069_0001_0001_0000200013_0000001_0_000 … (protein)
chain: NAAKLLQRLMRLGVLSPEELQAIFKVLAEALRNKDPELDHELMELLELADKGDPEAEEALRELLR
B6: il2ra_site2_2erj_sap_27_mot_HHH_b2_01204_af2_000000056_0001_19_34_H_._HHH_b2_02801_0001_0000200018_0000001_0_0001 (protein)
chain: DSEEALRMAAEVSAKAAGVPDVEVEVENGTLEVEFTGTTHKLKLVLRLLEKFARWFGLDFETSSE
B7: il2ra_site2_3nfp_normal_mot_HHH_b1_00660_af2_000000090_0001_40_57_H_._HHH_b2_00689_0001_0000400034_0000001_0_af2pred_0001_af2pred (protein)
chain: SSSSSEEEERIRELIEQVEELLKKGDEEEARRLLREAAQLAWEAQDHELFARILELYELLESSSS
B8: il2ra_site2_2erj_normal_mot_a46e32ff5abe01017c5ab207d099328f_0001_1_af2_000000211_0001_36_50_H_._HHH_b1_06777_0001_0000600025_0000001_0_af2pred_0001_af2pred (protein)
chain: SSSSDEEEERVEELRLEISELLAEGDHERVEELLEELEELAEKLNDEEAKEFVEIVRILLSSSSS
B9: il2ra_site2_2erj_normal_mot_HHH_b1_07584_000000201_0001_42_55_H_._HHH_b1_03480_0001_0000400010_0000001_0_af2pred_0001_af2pred (protein)
chain: SSSSSEEEEKVRELSAEAAELKAEGDEEEARELLEEALEIAREINNEELRIFIEILLKRLNSSSS
B10: il2ra_site2_2erj_normal_mot_HHH_b1_02713_af2_000000038_0001_1_19_H_._HHH_b2_05421_0001_0000200007_0000001_0 (protein)
chain: SSSSSEEERLIREALLRAELLIEEGNEEEARQVLESALSYAKVLGDEEVLERIEKLLEELSSSSS
B11: il2ra_site1_1z92_sap_18_mot_HHH_b1_08075_000000018_0001_1_20_H_._HHH_b1_07355_0001_0000300021_0000001_0_0001 (protein)
chain: SSSSSSSSEEEVRELLERAKKVDTEEWRELLREALRIANEAGDEEARKLLREFVEEHSSSSSSSS
B12: il2ra_site1_1z92_sap_28_mot_HHH_b1_06519_000000232_0001_23_40_H_._HHH_b1_03304_0001_0000600030_0000001_0_0001_af2pred_0001_af2pred_swapped (protein)
chain: SSSSSRLERSLKLAARIAAKLAGLDEEEERELEEIAEELAERGVDFEEALRILDEVANELGSSSS
B13: il2ra_site2_3nfp_sap_30_mot_HHH_b2_03087_000000007_0001_42_55_H_._0f396a3c5b789435df01682a1ed80b82_0001_1_0001_0000100002_0000001_0_0001_1 (protein)
chain: SSSSDEEEVEELIREAKELLEKGNPEEAKKVLREAAHLAFRANDSELFFKLAELLARIAHSSSSS
B14: il2ra_site1_3nfp_sap_13_mot_HHH_b2_03135_af2_000000097_0001_42_55_H_._HHH_b1_04020_af2_0001_0000500010_0000001_1_0001 (protein)
chain: SEEEEEAEELLKERLPPRAVEMLKILARAVKEGNPNAERRLHYDLRVARQFGDEAVVRAIELLLK
B15: il2ra_site1_1z92_sap_15_mot_HHH_b1_03703_af2_000000171_0001_39_56_H_._ems_3hM_2546_af2_0001_0000600021_0000001_0_0001_af2pred_0001_af2pred_1 (protein)
chain: TARERLRELEEELGDPEQAVKWLFEKAHEQGLPPRNARIFVRKLIARLLNVPPEEAEELLERALK
B16: il2ra_site1_2b5i_normal_mot_HHH_b1_02271_000000068_0001_1_16_H_._d6030c5dbf6566d80ce0ad72a14fd8d0_0001_0001_0000200013_0000001_0_af2pred_dldesign_0_af2pred (protein)
chain: SRRRALLTVLDEIYKRRPEFEDAVDECAKLLSEKDPRLEEKAQELIDKLEKVDPEAAARLRAALE
B17: il2ra_site1_3nfp_sap_16_mot_HHH_b1_02229_000000038_0001_38_54_H_._5c6c2aab5a4e0b2af11bcfcc9ba4b787_0001_1_af2_0001_0000300017_0000001_0_0001_af2pred_0001_1_af2p … (protein)
chain: SSSSDEARKAFELVEEIQRLIKEGDHEEARELLEKLKEIAEELNSPAAKLLVRILERRLNSSSSS
B18: il2ra_site2_3nfp_normal_mot_HHH_b1_05547_af2_000000149_0001_21_38_H_._HHH_b1_01193_0001_0000600015_0000001_1 (protein)
chain: SSSSDKEKEELEEALEEALEAARALGDEEVVERIEELLEEFRREGDPKYTLEAYRLSREAYSSSS
B19: il2ra_site2_3nfp_normal_mot_HHH_b2_06150_000000217_0001_39_53_H_._HHH_b1_01649_0001_0000800011_0000001_0 (protein)
chain: SSSSDVEERVERLLEEAERRREEGDPEAVQELLAEASHIAYENRNSELFYLIAEVLFRLASSSSS

These binders were tested against il2ra, P01589 (assay: yeast display titration).

Binder	apparent Kd
B1	inactive: no binding seen
B2	inactive: no binding seen
B3	inactive: no binding seen
B4	inactive: no binding seen
B5	inactive: no binding seen
B6	inactive: no binding seen
B7	inactive: no binding seen
B8	inactive: no binding seen
B9	inactive: no binding seen
B10	inactive: no binding seen
B11	inactive: no binding seen
B12	inactive: no binding seen
B13	inactive: no binding seen
B14	inactive: no binding seen
B15	inactive: no binding seen
B16	inactive: no binding seen
B17	inactive: no binding seen
B18	inactive: no binding seen
B19	inactive: no binding seen

Part of the list above in another layout.
Binder | apparent Kd
B11 | inactive: no binding seen
B18 | inactive: no binding seen
